Where a name gives a salt, the structure may show the parent alone. Some of the results follow. Single values are uncertain here, since repeats match poorly.
test system: Brugia pahangi adult female; assay: motility inhibition on day 3 relative to DMSO vehicle; higher = more active; settings: 10 µM; 3 days

Structure (SMILES)	motility inhibition on day 3 [%]
CCN(CC)CCNC(C(=O)OCCC(C)C)c1ccccc1 (stereo unspecified) [camylofine dihydrochloride]	4.34
Cc1c(-c2cnccn2)ssc1=S [oltipraz]	0.764
C(=C\c1ccccc1)/CN1CCN(C(c2ccccc2)c2ccccc2)CC1 [cinnarazine]	18.4
O=C(O)c1ccccc1C(=O)Nc1ccc(S(=O)(=O)Nc2nccs2)cc1 [phthalylsulfathiazole]	9.55
C[N+](C)(C)CC(=O)O [betaine hydrochloride]	34.6
OCCN(CCO)c1nc(N2CCCCC2)c2nc(N(CCO)CCO)nc(N3CCCCC3)c2n1 [Dipyridamole]	< 0
CN1CCN(C(c2ccccc2)c2ccccc2)CC1 [cyclizine]	23.5
C[C@]12CC[C@@H]3c4ccc(OC(=O)c5ccccc5)cc4CC[C@H]3[C@@H]1CC[C@@H]2O [estradiol benzoate]	28.4
CN(C)CCCN1c2ccccc2Sc2ccc(C(F)(F)F)cc21 [triflupromazine hydrochloride]	7.04
CCN(CC)CCOC(=O)C1(C2CCCCC2)CCCCC1 [dicyclomine hydrochloride]	20.2
CCCCOCCOCCOCc1cc2c(cc1CCC)OCO2 [piperonyl butoxide]	16.4
CC(N/C(=N\C#N)Nc1ccncc1)C(C)(C)C (stereo unspecified) [Pinacidil]	< 0
CC1(C)OC(=O)C(OCC2CC2)=C1c1ccc(S(C)(=O)=O)cc1 [firocoxib]	< 0
CCCCC(O)c1ccccc1 (stereo unspecified) [fenipentol]	< 0
CC(=O)Oc1ccccc1C(=O)Nc1ncc([N+](=O)[O-])s1 [nitazoxanide]	84.8
Oc1cc(O)c2c(c1)O[C@H](c1ccc(O)c(O)c1)[C@@H](O)C2 [cianidanol]	12.5
CO[C@H]1C[C@H](O[C@H]2[C@H](C)O[C@@H](O[C@@H]3/C(C)=C/C[C@@H]4C[C@@H](C[C@]5(C=C[C@H](C)[C@@H](C6CCCCC6)O5)O4)OC(=O)[C@@H]4C=C(C)[C@@H](O)[C@H]5OC/C(=C\C=C\[C@@H]3C)[C@]54O)C[C@@H]2OC)O[C@@H](C)[C@@H]1O [doramectin]	44.9
O=C1c2c(O)cccc2Cc2cccc(O)c21 [anthralin]	< 0
CC[N+](C)(CC)CCOC(=O)C(O)(c1ccccc1)C1CCCCC1 (stereo unspecified) [oxyphenonium bromide]	7
O=C(O)c1cn(-c2ccc(F)cc2)c2cc(N3CCNCC3)c(F)cc2c1=O [sarafloxacin hydrochloride]	< 0
C[C@@H]1C[C@H]2[C@@H]3C[C@H](F)C4=CC(=O)C=C[C@]4(C)[C@@]3(F)[C@@H](O)C[C@]2(C)[C@@]1(O)C(=O)CO [flumethasone]	< 0
O=C(O)Cc1ccc(-c2ccccc2)cc1 [felbinac]	0.924
CC(=O)OCC(=O)[C@@]1(O)[C@@H](C)C[C@H]2[C@@H]3CCC4=CC(=O)C=C[C@]4(C)[C@@]3(F)[C@@H](O)C[C@@]21C [betamethasone acetate]	0.848
Oc1ccc2ccccc2c1 [beta-naphthol]	69.2
N=C(NCCCCCCNC(=N)NC(=N)Nc1ccc(Cl)cc1)NC(=N)Nc1ccc(Cl)cc1 [chlorhexidine]	75.1
NCc1ccccc1CC(=O)N[C@@H]1C(=O)N2C(C(=O)O)=C(CSc3nnnn3CC(=O)O)CS[C@H]12 [ceforanide]	1.7

Structure (SMILES)	motility inhibition on day 3 [%]
COc1c2occc2cc2ccc(=O)oc12 [methoxsalen]	26.5
CC(C)CC(N)=O [isovaleramide]	7.72
CN1CCN(C2=Nc3ccccc3Oc3ccc(Cl)cc32)CC1 [Loxapine succinate]	8.58
Clc1ccc(CCC(Cn2ccnc2)Sc2c(Cl)cccc2Cl)cc1 (stereo unspecified) [butoconazole]	< 0
N#Cc1ccc(C(c2ccc(C#N)cc2)n2cncn2)cc1 [letrozole]	4.66
C[N+]1(C)CCC(OC(=O)C(O)(c2ccccc2)C2CCCC2)C1 (stereo unspecified) [glycopyrrolate]	2.28
NNCCc1ccccc1 [phenelzine sulfate]	20.4
Cc1nccnc1N1CCCCC1 [modaline sulfate]	9.1
C=C1CC[C@H](O)C/C1=C/C=C1\CCC[C@]2(C)[C@@H]([C@H](C)CCCC(C)C)CC[C@@H]12 [cholecalciferol]	2.89
CC(Cc1cccc(C(F)(F)F)c1)NCCOC(=O)c1ccccc1 (stereo unspecified) [benfluorex hydrochloride]	< 0
CC(=O)S[C@@H]1CC2=CC(=O)CC[C@]2(C)[C@H]2CC[C@@]3(C)[C@@H](CC[C@@]34CCC(=O)O4)[C@H]12 [spironolactone]	< 0
CCCc1cc(C(N)=S)ccn1 [protionamide]	< 0
CO[C@H]1/C=C/O[C@@]2(C)Oc3c(C)c(O)c4c(O)c(c(/C=N/N5CCN(C6CCCC6)CC5)c(O)c4c3C2=O)NC(=O)/C(C)=C\C=C\[C@H](C)[C@H](O)[C@@H](C)[C@@H](O)[C@@H](C)[C@H](OC(C)=O)[C@@H]1C	1.44
N=C(N)NC(=N)NCCc1ccccc1 [phenformin hydrochloride]	4.92
CN1CCC(=C2c3ccccc3C=Cc3ccccc32)CC1 [Cyproheptadine hydrochloride]	7.54
CN1CCN(CC/C=C2/c3ccccc3Sc3ccc(S(=O)(=O)N(C)C)cc32)CC1 [thiothixene]	< 0
C[C@H]1O[C@H](O[C@H]2[C@H](O)[C@@H](O)[C@@H](O[C@H]3[C@H](O)[C@@H](O)C(O)O[C@@H]3CO)O[C@@H]2CO)[C@H](O)[C@@H](O)[C@@H]1N[C@H]1C=C(CO)[C@@H](O)[C@H](O)[C@H]1O (stereo partly specified) [acarbose]	1.33
CC(C)(CO)[C@@H](O)C(=O)NCCC(=O)NCCSSCCNC(=O)CCNC(=O)[C@H](O)C(C)(C)CO [pantethine]	0.236
C[C@@H](O)CN(CCN(C[C@@H](C)O)C[C@@H](C)O)C[C@@H](C)O [editol]	3.03
Cc1cn[nH]c1 [fomepizole hydrochloride]	1.97
OCCN1CCN(CC/C=C2/c3ccccc3Sc3ccc(C(F)(F)F)cc32)CC1 [(E/Z)-Flupentixol Dihydrochloride]	4.85
CC(=O)[C@@]1(O)CC[C@H]2[C@@H]3C=C(Cl)C4=CC(=O)[C@@H]5C[C@@H]5[C@]4(C)[C@H]3CC[C@@]21C [cyproterone]	< 0
Nc1[nH]cnc2ncnc1-2 [adenine]	< 0
CC[N+](C)(C)c1cccc(O)c1 [edrophonium chloride]	9.6
NCCc1c[nH]cn1 [Histamine dihydrochloride]	8.42
OC(Cn1cncn1)(Cn1cncn1)c1ccc(F)cc1F [fluconazole]	< 0

Structure (SMILES)	motility inhibition on day 3 [%]
CCCOc1cc(N)ccc1C(=O)OCCN(CC)CC [propoxycaine hydrochloride]	< 0
CC(=O)OCC(=O)[C@@]1(O)CC[C@H]2[C@@H]3CCC4=CC(=O)CC[C@]4(C)[C@H]3[C@@H](O)C[C@@]21C [hydrocortisone acetate]	28.5
Cc1ncc(C[n+]2csc(CCO)c2C)c(N)n1 [thiamine]	16.5
CC(C)c1c(C(=O)Nc2ccccc2)c(-c2ccccc2)c(-c2ccc(F)cc2)n1CC[C@@H](O)C[C@@H](O)CC(=O)O [atorvastatin calcium]	13.6
CCN[C@H]1CN(CCCOC)S(=O)(=O)c2sc(S(N)(=O)=O)cc21 [brinzolamide]	15
NS(=O)(=O)c1cc(C2(O)NC(=O)c3ccccc32)ccc1Cl (stereo unspecified) [chlorthalidone]	8.44
CCCCCCCCCCCCCCCC(=O)OC/C=C(C)/C=C/C=C(C)/C=C/C1=C(C)CCCC1(C)C [retinyl palmitate]	1.99
CC(=O)OCC(=O)[C@@]1(O)CC[C@H]2[C@@H]3CCC4=CC(=O)CC[C@]4(C)[C@@]3(F)[C@@H](O)C[C@@]21C [fludrocortisone acetate]	18.4
O=C(O)CCCCCCCC(=O)O [azelaic acid]	37.6
CCCOc1ccc(S(=O)(=O)NCCC2CCCN2C)cc1-c1nc2c(CCC)nn(C)c2c(=O)[nH]1 (stereo unspecified) [Udenafil]	2.96
CC(=O)OCC(=O)[C@@]1(O)CC[C@H]2[C@@H]3CCC4=CC(=O)C=C[C@]4(C)[C@@]3(Cl)[C@@H](Cl)C[C@@]21C [dichlorisone acetate]	< 0
CCCCN(CCCC)CCCOC(=O)c1ccc(N)cc1 [butacaine]	17.4
Cc1ccc(C(=O)c2ccc(CC(=O)O)n2C)cc1 [tolmetin sodium]	15.9
FC(F)(F)C(Cl)Br (stereo unspecified) [halothane]	18.4
O=C(O)CN1C(=O)c2cccc3cccc(c23)C1=O [alrestatin]	24.7
CN(C)c1cnccn1 [ampyzine sulfate]	< 0
CC(=O)OCC(=O)NCCCOc1cccc(CN2CCCCC2)c1 [roxatidine acetate hydrochloride]	17.9
CCn1cc(C(=O)O)c(=O)c2cc(F)c(N3CCNCC3)nc21 [enoxacin]	< 0
OC[C@@H](O)[C@@H](O)[C@H](O)[C@H](O)CO [mannitol]	8.35
C=CCc1ccc(O)c(OC)c1 [eugenol]	42.4
O=C1OC(c2ccc(O)cc2)(c2ccc(O)cc2)c2ccccc21 [phenolphthalein]	< 0
CC(C(=O)O)c1cccc(Oc2ccccc2)c1 (stereo unspecified) [fenoprofen]	18.5
O=C(O)CN(CCN(CC(=O)O)CC(=O)O)CC(=O)O.[Na+].[Na+].[Na+] [trisodium ethylenediamine tetracetate]	13.9
CCCc1ncc(C[n+]2ccccc2C)c(N)n1 [amprolium]	< 0

Reference: the supplement of paper PMC7830784
